CN114075281A
Results are given in words; binding and its absence hold for the method and conditions named. Some entries that bind do so weakly or less than the wild type.

Molecular target: T1, 人Inhibin-α蛋白 (in human tissue sections) (human) (UniProt P05111)
T1 sequence (looked up): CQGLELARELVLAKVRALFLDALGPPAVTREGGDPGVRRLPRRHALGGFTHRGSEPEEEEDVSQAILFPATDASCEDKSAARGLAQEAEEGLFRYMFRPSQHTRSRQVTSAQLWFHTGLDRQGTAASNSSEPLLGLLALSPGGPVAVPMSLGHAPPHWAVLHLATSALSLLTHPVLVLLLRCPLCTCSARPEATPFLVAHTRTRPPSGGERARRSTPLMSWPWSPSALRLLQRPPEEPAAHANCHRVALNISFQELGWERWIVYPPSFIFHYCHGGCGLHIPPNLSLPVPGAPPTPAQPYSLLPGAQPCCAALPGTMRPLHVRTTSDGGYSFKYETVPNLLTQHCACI
Assay: immunohistochemistry on paraffin sections of human tumour tissue

binding: binds
B1: 抗Inhibin-α蛋白单克隆抗体(15E11D5E11) (antibody, V domains shown)
VH: EVQLQQSGPELVKPGTSVKISCKTAGYTFTAYNIHWVKQSHGKSLEWIGSINPNFGDTRYNQMFEGKATLTVDKSSSTAYMELRSLTSEDAVVYYCARSSGAWFPYWGQGTLVTVSA
VL: DVLMTQIPLSLPVSLGDQASISCRASQSIVHSSGNTYLEWYLQKPGQSPKLLIYKVSNRFSGVPDRFSGSGSGTDFTLKISRVEAEDLGVYYCFQGSHVPPTFGGGTNLEIK
